The exact form of at least one protein or probe is not confirmed. The comparison behind a weaker result is the experiment's own reference, which may not be listed here. For part of these data: At least one verdict rests on a figure or table, not on a statement of the authors.
Columns and labels:
[1] = molecular target: APOBEC3B (A3B) WT (human) (UniProt Q9UH17); experiment: EMSA; details: Competition EMSA: 25 mM HEPES pH 7.4, 50 mM NaCl, 0.4 U/ul RNase inhibitor, room temperature, 5 min binding plus 10 min with competitor, recombinant protein, protein details: C-terminal mycHis
[2] = molecular target: A3B Mut2 Y13D,Y28S,Y83D,W127S,Y162D,Y191H (human) (UniProt Q9UH17); experiment: EMSA with unlabeled competitor; details: defective binding versus WT, Competition EMSA: 25 mM HEPES pH 7.4, 50 mM NaCl, 0.4 U/ul RNase inhibitor, room temperature, 5 min binding plus 10 min with competitor, recombinant protein, protein details: C-terminal mycHis, label: 5' IRDye800CW, unlabeled as competitor
[3] = NEB2 buffer, strand 3 is RNA, label: 5' IRDye700 on strand 1

Chains of the proteins cited; added tags and fusions are not shown.
UniProt Q9UH17, whole entry Y13D/Y28S/Y83D/W127S/Y162D/Y191H: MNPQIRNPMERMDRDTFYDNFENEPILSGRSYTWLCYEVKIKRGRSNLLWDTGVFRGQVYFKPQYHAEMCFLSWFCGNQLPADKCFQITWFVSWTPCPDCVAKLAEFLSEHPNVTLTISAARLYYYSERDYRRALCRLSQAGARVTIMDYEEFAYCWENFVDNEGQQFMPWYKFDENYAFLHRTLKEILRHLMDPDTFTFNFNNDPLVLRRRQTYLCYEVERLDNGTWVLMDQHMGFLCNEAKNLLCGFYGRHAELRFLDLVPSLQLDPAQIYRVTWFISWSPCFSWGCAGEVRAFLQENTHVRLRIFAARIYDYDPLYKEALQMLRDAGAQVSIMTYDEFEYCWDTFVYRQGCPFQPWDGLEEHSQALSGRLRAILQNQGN

“GTGAGAGATAGGTGGTTGTATGATGATGAGGTCAGGATAGTAGGATAGTGTGGATAGGTGAG [long 62-mer ssDNA]”: binds ([1]; label: 5' IRDye700, single-stranded DNA).
“ATTAGTCATATGGAT [short 15-mer ssDNA (A3B DNA EMSA)]”: binds more weakly ([2]; single-stranded DNA).
“GTGAGAGATAGGTGGTTGTATGATGATGAGGTCAGGATAGTAGGATAGTGTGGATAGGTGAG / CTCACCTATCCACACTATCTGTAAGTTAAGTAAGTTGGTGCATACAACCACCTATCTCTCAC / CACCAACUUACUUAACUUACA [R-loop (short)]”: binds [1, 3].
“GTGAGAGATAGGTGGTTGTATGATGATGAGGTCAGGATAGTAGGATAGTGTGGATAGGTGAG / CTCACCTATCCACACTATCTGTAAGTTAAGTAAGTTGGTGCATACAACCACCTATCTCTCAC / AACAACCACGCACACCAACUUACUUAACUUACA [R-loop (long)]”: binds [1, 3].
“GTGAGAGATAGGTGGTTGTATGATGATGAGGTCAGGATAGTAGGATAGTGTGGATAGGTGAG (double strand) [long dsDNA]”: binds more weakly ([1]; lesser extent than R-loop, ssDNA, ssRNA, label: 5' IRDye700 on strand 1).
“AUUAGUCAUAUGGAU [short 15-mer ssRNA (A3B RNA EMSA)]”: binds more weakly [2].
